Data published in publication PMC9481740.
Substitutions are numbered along the chain they refer to. In names and notes the source's numbering stands. No constants are given. Whether binding was seen depends on the method and setting. Some entries that bind do so weakly or less than the wild type. Sequences can lack the tags named with a protein.

B1: ^mChSpindly^33–605 (domain or fragment, UniProt Q96EA4 33-605)
chain: SQNELQNQLDKCRNEMMTMTESYEQEKYTLQREVELKSRMLESLSCECEAIKQQQKMHLEKLEEQLSRSHGQEVNELKTKIEKLKVELDEARLSEKQLKHQVDHQKELLSCKSEELRVMSERVQESMSSEMLALQIELTEMESMKTTLKEEVNELQYRQEQLELLITNLMRQVDRLKEEKEEREKEAVSYYNALEKARVANQDLQVQLDQALQQALDPNSKGNSLFAEVEDRRAAMERQLISMKVKYQSLKKQNVFNREQMQRMKLQIATLLQMKGSQTEFEQQERLLAMLEQKNGEIKHLLGEIRNLEKFKNLYDSMESKPSVDSGTLEDNTYYTDLLQMKLDNLNKEIESTKGELSIQRMKALFESQRALDIERKLFANERCLQLSESENMKLRAKLDELKLKYEPEETVEVPVLKKRREVLPVDITTAKDACVNNSALGGEVYRLPPQKEETQSCPNSLEDNNLQLEKSVSIYTPVVSLSPHKNLPVDMQLKKEKKCVKLIGVPADAEALSERSGNTPNSPRLAAESKLQTEVKEGKETSSKLEKETCKKLHPILYVSSKSTPETQCPQQ
B2: ^mChSpindly^CC2* (R295E-K297E) (protein, UniProt Q96EA4 1-605)
chain: MEADIITNLRCRLKEAEEERLKAAQYGLQLVESQNELQNQLDKCRNEMMTMTESYEQEKYTLQREVELKSRMLESLSCECEAIKQQQKMHLEKLEEQLSRSHGQEVNELKTKIEKLKVELDEARLSEKQLKHQVDHQKELLSCKSEELRVMSERVQESMSSEMLALQIELTEMESMKTTLKEEVNELQYRQEQLELLITNLMRQVDRLKEEKEEREKEAVSYYNALEKARVANQDLQVQLDQALQQALDPNSKGNSLFAEVEDRRAAMERQLISMKVKYQSLKKQNVFNREQMQEMELQIATLLQMKGSQTEFEQQERLLAMLEQKNGEIKHLLGEIRNLEKFKNLYDSMESKPSVDSGTLEDNTYYTDLLQMKLDNLNKEIESTKGELSIQRMKALFESQRALDIERKLFANERCLQLSESENMKLRAKLDELKLKYEPEETVEVPVLKKRREVLPVDITTAKDACVNNSALGGEVYRLPPQKEETQSCPNSLEDNNLQLEKSVSIYTPVVSLSPHKNLPVDMQLKKEKKCVKLIGVPADAEALSERSGNTPNSPRLAAESKLQTEVKEGKETSSKLEKETCKKLHPILYVSSKSTPETQCPQQ
B3: mCherry-tagged full-length Spindly (^mChSpindly^FL) (protein, UniProt Q96EA4 1-605)
chain: B2 chain with E295R, E297K
B4: GST-Spindly^CC2* (protein, UniProt Q96EA4 1-605)
chain: B2 chain
B5: Spindly^1–275 (domain or fragment, UniProt Q96EA4 1-275)
chain: MEADIITNLRCRLKEAEEERLKAAQYGLQLVESQNELQNQLDKCRNEMMTMTESYEQEKYTLQREVELKSRMLESLSCECEAIKQQQKMHLEKLEEQLSRSHGQEVNELKTKIEKLKVELDEARLSEKQLKHQVDHQKELLSCKSEELRVMSERVQESMSSEMLALQIELTEMESMKTTLKEEVNELQYRQEQLELLITNLMRQVDRLKEEKEEREKEAVSYYNALEKARVANQDLQVQLDQALQQALDPNSKGNSLFAEVEDRRAAMERQLISM
B6: ^mChSpindly^ΔRV (protein, UniProt Q96EA4 1-605)
chain: MEADIITNLRCRLKEAEEERLKAAQYGLQLVESQNELQNQLDKCRNEMMTMTESYEQEKYTLQREVELKSRMLESLSCECEAIKQQQKMHLEKLEEQLSRSHGQEVNELKTKIEKLKVELDEARLSEKQLKHQVDHQKELLSCKSEELRVMSEQESMSSEMLALQIELTEMESMKTTLKEEVNELQYRQEQLELLITNLMRQVDRLKEEKEEREKEAVSYYNALEKARVANQDLQVQLDQALQQALDPNSKGNSLFAEVEDRRAAMERQLISMKVKYQSLKKQNVFNREQMQRMKLQIATLLQMKGSQTEFEQQERLLAMLEQKNGEIKHLLGEIRNLEKFKNLYDSMESKPSVDSGTLEDNTYYTDLLQMKLDNLNKEIESTKGELSIQRMKALFESQRALDIERKLFANERCLQLSESENMKLRAKLDELKLKYEPEETVEVPVLKKRREVLPVDITTAKDACVNNSALGGEVYRLPPQKEETQSCPNSLEDNNLQLEKSVSIYTPVVSLSPHKNLPVDMQLKKEKKCVKLIGVPADAEALSERSGNTPNSPRLAAESKLQTEVKEGKETSSKLEKETCKKLHPILYVSSKSTPETQCPQQ
B7: Spindly^156–275 (domain or fragment, UniProt Q96EA4 156-275)
chain: QESMSSEMLALQIELTEMESMKTTLKEEVNELQYRQEQLELLITNLMRQVDRLKEEKEEREKEAVSYYNALEKARVANQDLQVQLDQALQQALDPNSKGNSLFAEVEDRRAAMERQLISM
B8: Spindly^1–354 (domain or fragment, UniProt Q96EA4 1-354)
chain: MEADIITNLRCRLKEAEEERLKAAQYGLQLVESQNELQNQLDKCRNEMMTMTESYEQEKYTLQREVELKSRMLESLSCECEAIKQQQKMHLEKLEEQLSRSHGQEVNELKTKIEKLKVELDEARLSEKQLKHQVDHQKELLSCKSEELRVMSERVQESMSSEMLALQIELTEMESMKTTLKEEVNELQYRQEQLELLITNLMRQVDRLKEEKEEREKEAVSYYNALEKARVANQDLQVQLDQALQQALDPNSKGNSLFAEVEDRRAAMERQLISMKVKYQSLKKQNVFNREQMQRMKLQIATLLQMKGSQTEFEQQERLLAMLEQKNGEIKHLLGEIRNLEKFKNLYDSMESKP
B9: ^mChSpindly^76–605 (domain or fragment, UniProt Q96EA4 76-605)
chain: LSCECEAIKQQQKMHLEKLEEQLSRSHGQEVNELKTKIEKLKVELDEARLSEKQLKHQVDHQKELLSCKSEELRVMSERVQESMSSEMLALQIELTEMESMKTTLKEEVNELQYRQEQLELLITNLMRQVDRLKEEKEEREKEAVSYYNALEKARVANQDLQVQLDQALQQALDPNSKGNSLFAEVEDRRAAMERQLISMKVKYQSLKKQNVFNREQMQRMKLQIATLLQMKGSQTEFEQQERLLAMLEQKNGEIKHLLGEIRNLEKFKNLYDSMESKPSVDSGTLEDNTYYTDLLQMKLDNLNKEIESTKGELSIQRMKALFESQRALDIERKLFANERCLQLSESENMKLRAKLDELKLKYEPEETVEVPVLKKRREVLPVDITTAKDACVNNSALGGEVYRLPPQKEETQSCPNSLEDNNLQLEKSVSIYTPVVSLSPHKNLPVDMQLKKEKKCVKLIGVPADAEALSERSGNTPNSPRLAAESKLQTEVKEGKETSSKLEKETCKKLHPILYVSSKSTPETQCPQQ
B10: ^mChSpindly^∆26–32 (protein, UniProt Q96EA4)
chain: MEADIITNLRCRLKEAEEERLKAAQSQNELQNQLDKCRNEMMTMTESYEQEKYTLQREVELKSRMLESLSCECEAIKQQQKMHLEKLEEQLSRSHGQEVNELKTKIEKLKVELDEARLSEKQLKHQVDHQKELLSCKSEELRVMSERVQESMSSEMLALQIELTEMESMKTTLKEEVNELQYRQEQLELLITNLMRQVDRLKEEKEEREKEAVSYYNALEKARVANQDLQVQLDQALQQALDPNSKGNSLFAEVEDRRAAMERQLISMKVKYQSLKKQNVFNREQMQRMKLQIATLLQMKGSQTEFEQQERLLAMLEQKNGEIKHLLGEIRNLEKFKNLYDSMESKPSVDSGTLEDNTYYTDLLQMKLDNLNKEIESTKGELSIQRMKALFESQRALDIERKLFANERCLQLSESENMKLRAKLDELKLKYEPEETVEVPVLKKRREVLPVDITTAKDACVNNSALGGEVYRLPPQKEETQSCPNSLEDNNLQLEKSVSIYTPVVSLSPHKNLPVDMQLKKEKKCVKLIGVPADAEALSERSGNTPNSPRLAAESKLQTEVKEGKETSSKLEKETCKKLHPILYVSSKSTPETQCPQQ
B11: Spindly^1–440 (domain or fragment, UniProt Q96EA4 1-440)
chain: MEADIITNLRCRLKEAEEERLKAAQYGLQLVESQNELQNQLDKCRNEMMTMTESYEQEKYTLQREVELKSRMLESLSCECEAIKQQQKMHLEKLEEQLSRSHGQEVNELKTKIEKLKVELDEARLSEKQLKHQVDHQKELLSCKSEELRVMSERVQESMSSEMLALQIELTEMESMKTTLKEEVNELQYRQEQLELLITNLMRQVDRLKEEKEEREKEAVSYYNALEKARVANQDLQVQLDQALQQALDPNSKGNSLFAEVEDRRAAMERQLISMKVKYQSLKKQNVFNREQMQRMKLQIATLLQMKGSQTEFEQQERLLAMLEQKNGEIKHLLGEIRNLEKFKNLYDSMESKPSVDSGTLEDNTYYTDLLQMKLDNLNKEIESTKGELSIQRMKALFESQRALDIERKLFANERCLQLSESENMKLRAKLDELKLKYEP
B12: ^mChSpindly^∆276–306 (protein, UniProt Q96EA4)
chain: MEADIITNLRCRLKEAEEERLKAAQYGLQLVESQNELQNQLDKCRNEMMTMTESYEQEKYTLQREVELKSRMLESLSCECEAIKQQQKMHLEKLEEQLSRSHGQEVNELKTKIEKLKVELDEARLSEKQLKHQVDHQKELLSCKSEELRVMSERVQESMSSEMLALQIELTEMESMKTTLKEEVNELQYRQEQLELLITNLMRQVDRLKEEKEEREKEAVSYYNALEKARVANQDLQVQLDQALQQALDPNSKGNSLFAEVEDRRAAMERQLISMKGSQTEFEQQERLLAMLEQKNGEIKHLLGEIRNLEKFKNLYDSMESKPSVDSGTLEDNTYYTDLLQMKLDNLNKEIESTKGELSIQRMKALFESQRALDIERKLFANERCLQLSESENMKLRAKLDELKLKYEPEETVEVPVLKKRREVLPVDITTAKDACVNNSALGGEVYRLPPQKEETQSCPNSLEDNNLQLEKSVSIYTPVVSLSPHKNLPVDMQLKKEKKCVKLIGVPADAEALSERSGNTPNSPRLAAESKLQTEVKEGKETSSKLEKETCKKLHPILYVSSKSTPETQCPQQ

target: Dynactin pointed-end (PE) capping complex (p25, p27, p62, Arp11) (UniProt Q9NZ32); assay: SEC; PE complex 3 µM mixed with Spindly construct 8 µM (Fig. 3 F: 4 µM and 10 µM), at least 1 h on ice; Superdex 200 5/150 (named in the legend of Fig. 5); 4°C, Spindly buffer (50 mM Hepes pH 8.0, 250 mM NaCl, 2 mM TCEP); fractions on SDS-PAGE; both purified

binding	Binder
binds	B1
binds	B2
binds	B4
binds weakly	B5
binds	B6
binds	B7
binds	B9
binds weakly	B10
binds weakly	B12

Binder	binding
B3	no binding (tested: Spindly construct 8 µM, PE 3 µM)
B8	no binding (tested: Spindly construct 8 µM, PE 3 µM)
B11	no binding (tested: Spindly construct 8 µM, PE 3 µM)
